From patent US5861475A, “Compositions and methods for the inhibition of phagocytes” (Research Corporation Technologies, Inc., priority 1996, dated 1999)
Entries after “also recorded” stand apart in the source; their conditions may differ. Part of at least one peptide drawing is inferred or uncertain, most often the ends. Where no end group is shown, it is not given here.

Columns and labels:
[1] = tested on: polymorphonuclear neutrophils (PMN); experiment: fMLP-stimulated PMN superoxide production (ferricytochrome C reduction); type: cell-based, human; settings: for inhibition of fMLP-stimulated PMN superoxide production: preliminary data; for effect of modified pentapeptides on fMLP-induced superoxide production: PMN incubated with peptide for 15 minutes prior to assay (FIG. 11)
PMN lysates = experiment: Phosphorylation of synthetic peptides by PMN lysates with [γ-32P]ATP; type: biochemical, human; settings: for 32P incorporation (phosphorylation), autoradiogram: 40 μg peptide, one hour room temperature (FIG. 9)
[2] = tested on: polymorphonuclear neutrophils (PMN); type: cell-based, human; settings: for inhibition of PMN chemotaxis to C5a: 10 nM human recombinant C5a, agonist and peptide exposed to cells at the same time
Protocol: Whole blood was obtained from a normal human volunteer population and PMN were isolated by ficoll-hypaque gradient centrifugation followed dextran sedimentation, as described by Cooper et al., (1991).
The degree of inhibition of PMN chemotaxis by natural purified inhibitor or synthetic peptides was determined as described by Cooper et al. (1991) using 100 nM formyl-methionyl-leucyl-phenylalanine (fMLP), 10 nM human recombinant C5a or 10 nM leukotriene B4 and multiwell chemotaxis chambers (Neuroprobe Inc., Bethesda, Md.) employing nitrocellulose membranes. Isoelectric focused fractions or HPLC elution fractions were diluted 1:1000 in a final concentration of the above agonists. Controls included buffer alone or C5a diluted in buffer alone.
22 μl of samples were placed in bottom wells of the chemotaxis chamber, a nitrocellulose membrane with 3 μm pores was overlaid as was a rubber gasket. The top plate of the chamber was then secured and the entire chamber was warmed to 37° C. for 15 minutes. 50 μl of PMN suspended at 1.5×10^6 /ml in HBSS with 0.1% BSA were then added to the top wells and the plates were incubated for an additional 1-11/2 hours. Chemotaxis was assessed by comparing the maximal distance migrated to agonist alone or in the presence of an irrelevant peptide (μm minus migration to buffer alone) and comparing to the distance migrated to agonist plus elution fractions or synthetic peptides. The percentage of total cells migrating 10 μm increments from 0 to 120 μm was also determined by image analysis (Olympus Instruments) and treatment groups were compared to controls. Synthetic peptides were also incubated with PMN for varying amounts of time, then PMN were assessed for chemotaxis to recombinant C5a.

[3] = tested on: polymorphonuclear neutrophils (PMN); experiment: PMN chemotaxis to fMLP in multiwell chemotaxis chambers; type: cell-based, human; settings: 100 nM fMLP; cells concomitantly exposed to peptide and agonist
U937 lysates = experiment: Phosphorylation of synthetic peptides by U937 (irrelevant) cell lysates with [γ-32P]ATP; type: biochemical
[4] = 5 μM NIP, 60 minutes pre-exposure

EGSYFFGDNA [NIP-Arg, Glu-Gly-Ser-Tyr-Phe-Phe-Gly-Asp-Asn-Ala]
inhibition of fMLP-stimulated PMN superoxide production [1]: inhibit | 32P incorporation (phosphorylation), autoradiogram (PMN lysates): to a lesser degrees | inhibition of PMN chemotaxis to C5a [2]: significantly inhibited

GAAFF [Gly-Ala-Ala-Phe-Phe]
effect of modified pentapeptides on fMLP-induced superoxide production [1]: markedly attenuated; also recorded: more significantly than any other peptides | effect of modified pentapeptides on C5a-induced chemotaxis ([2]; PMN incubated with peptide for 15 minutes prior to assay (FIG. 11)): to a lesser extent

GSAFF [Gly-Ser-Ala-Phe-Phe]
effect of modified pentapeptides on fMLP-induced superoxide production [1]: markedly attenuated; also recorded: more significantly than any other peptides

GSYFF [GSYFF, Gly-Ser-Tyr-Phe-Phe]
inhibition of fMLP-stimulated PMN superoxide production [1]: inhibit | 32P incorporation (phosphorylation), autoradiogram (PMN lysates): not readily apparent | 32P incorporation in RPHPLC fractions by scintillation counting (PMN lysates; RPHPLC (FIG. 10)): a peak of phosphorylation, absent in the control injection, co-eluted with GSYFF | inhibition of PMN chemotaxis to C5a [2]: significantly inhibited | potency of inhibition of PMN chemotaxis to C5a relative to NIP ([2]; agonist and peptide exposed to cells at the same time (FIG. 6)): approximately the same potency as NIP

REGSYFFGDNA [NIP, Arg-Glu-Gly-Ser-Tyr-Phe-Phe-Gly-Asp-Asn-Ala]
inhibition of PMN chemotaxis to fMLP [3]: inhibited | superoxide production in response to fMLP ([1]; 1 μM peptide for 15 minutes prior to addition of fMLP (10 μM)): significantly less superoxide than control PMN | exposure time at which inhibition of fMLP-induced superoxide release was noted ([1]; 5 μM NIP pre-exposure at room temperature (FIG. 8b)): ≤ 5 min | inhibition of fMLP-induced superoxide release after prolonged exposure [1, 4]: no longer apparent | cytochrome C reduction, nonspecific effect ([1]; peptide added after cells were stimulated with fMLP for 60 minutes): did not affect | 32P incorporation (phosphorylation) (U937 lysates): but not U937 lysates | 32P incorporation (phosphorylation), autoradiogram (PMN lysates): intense incorporation of ^32 P | chemotaxis to C5a assessed by counting the number of cells migrating 10 μm increments ([2]; 10 nM C5a, varying concentrations (FIG. 5)): dose-dependent inhibition | inhibition of PMN chemotaxis to C5a [2]: inhibited | exposure time at which inhibition of C5a induced chemotaxis was noted ([2]; 5 μM NIP pre-exposure at room temperature (FIG. 8a)): ≤ 5 min | inhibition of C5a induced chemotaxis after prolonged exposure [2, 4]: no longer apparent
